From the supplement of paper PMC10849652
This is one part of the list.

Protein sequences, listed by entry. Tags and fused reporters are not part of them. Lines headed by an entry give the natural chain unless they say otherwise; changes in a name come on top.
UniProt A2RU49: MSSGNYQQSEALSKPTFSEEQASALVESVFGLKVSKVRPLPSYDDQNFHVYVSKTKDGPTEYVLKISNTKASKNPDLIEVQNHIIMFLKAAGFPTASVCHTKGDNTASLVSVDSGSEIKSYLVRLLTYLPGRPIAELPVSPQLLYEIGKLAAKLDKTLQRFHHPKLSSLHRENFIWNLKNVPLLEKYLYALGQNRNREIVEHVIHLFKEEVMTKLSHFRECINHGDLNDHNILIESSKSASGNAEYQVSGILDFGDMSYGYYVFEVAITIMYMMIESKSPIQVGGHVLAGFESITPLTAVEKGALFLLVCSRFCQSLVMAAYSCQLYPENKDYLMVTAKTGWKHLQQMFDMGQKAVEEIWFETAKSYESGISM
UniProt P41252: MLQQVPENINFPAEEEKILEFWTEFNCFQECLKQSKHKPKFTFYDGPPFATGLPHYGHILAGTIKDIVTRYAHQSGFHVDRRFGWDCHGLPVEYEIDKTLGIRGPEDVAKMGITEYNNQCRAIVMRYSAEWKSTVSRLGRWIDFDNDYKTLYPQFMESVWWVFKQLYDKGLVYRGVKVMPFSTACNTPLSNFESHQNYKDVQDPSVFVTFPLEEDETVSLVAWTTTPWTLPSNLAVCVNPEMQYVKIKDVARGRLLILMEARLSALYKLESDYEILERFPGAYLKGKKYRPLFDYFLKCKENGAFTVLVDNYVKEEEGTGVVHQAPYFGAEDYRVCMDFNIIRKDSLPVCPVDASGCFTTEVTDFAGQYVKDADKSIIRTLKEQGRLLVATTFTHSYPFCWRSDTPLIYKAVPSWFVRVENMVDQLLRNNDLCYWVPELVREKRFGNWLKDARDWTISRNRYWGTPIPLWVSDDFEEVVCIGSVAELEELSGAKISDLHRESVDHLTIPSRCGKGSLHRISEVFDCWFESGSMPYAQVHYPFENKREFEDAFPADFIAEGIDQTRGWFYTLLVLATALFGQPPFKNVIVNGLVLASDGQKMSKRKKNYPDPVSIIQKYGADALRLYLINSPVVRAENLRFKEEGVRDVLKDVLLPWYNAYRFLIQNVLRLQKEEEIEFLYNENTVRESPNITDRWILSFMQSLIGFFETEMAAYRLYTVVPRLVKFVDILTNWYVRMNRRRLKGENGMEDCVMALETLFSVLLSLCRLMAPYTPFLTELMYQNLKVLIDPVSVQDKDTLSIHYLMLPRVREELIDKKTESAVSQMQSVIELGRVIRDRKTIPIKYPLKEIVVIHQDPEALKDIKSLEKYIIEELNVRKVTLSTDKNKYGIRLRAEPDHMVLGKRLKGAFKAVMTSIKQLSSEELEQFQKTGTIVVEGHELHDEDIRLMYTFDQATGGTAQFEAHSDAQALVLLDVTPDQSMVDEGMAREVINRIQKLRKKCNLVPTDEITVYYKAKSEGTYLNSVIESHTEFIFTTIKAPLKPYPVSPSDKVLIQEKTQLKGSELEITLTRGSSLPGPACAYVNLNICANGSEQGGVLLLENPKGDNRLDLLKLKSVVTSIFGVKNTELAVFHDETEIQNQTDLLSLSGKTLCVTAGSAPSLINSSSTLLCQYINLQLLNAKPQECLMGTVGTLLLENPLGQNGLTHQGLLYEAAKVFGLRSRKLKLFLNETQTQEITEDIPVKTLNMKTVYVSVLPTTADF
UniProt Q27J81, whole entry, looked up: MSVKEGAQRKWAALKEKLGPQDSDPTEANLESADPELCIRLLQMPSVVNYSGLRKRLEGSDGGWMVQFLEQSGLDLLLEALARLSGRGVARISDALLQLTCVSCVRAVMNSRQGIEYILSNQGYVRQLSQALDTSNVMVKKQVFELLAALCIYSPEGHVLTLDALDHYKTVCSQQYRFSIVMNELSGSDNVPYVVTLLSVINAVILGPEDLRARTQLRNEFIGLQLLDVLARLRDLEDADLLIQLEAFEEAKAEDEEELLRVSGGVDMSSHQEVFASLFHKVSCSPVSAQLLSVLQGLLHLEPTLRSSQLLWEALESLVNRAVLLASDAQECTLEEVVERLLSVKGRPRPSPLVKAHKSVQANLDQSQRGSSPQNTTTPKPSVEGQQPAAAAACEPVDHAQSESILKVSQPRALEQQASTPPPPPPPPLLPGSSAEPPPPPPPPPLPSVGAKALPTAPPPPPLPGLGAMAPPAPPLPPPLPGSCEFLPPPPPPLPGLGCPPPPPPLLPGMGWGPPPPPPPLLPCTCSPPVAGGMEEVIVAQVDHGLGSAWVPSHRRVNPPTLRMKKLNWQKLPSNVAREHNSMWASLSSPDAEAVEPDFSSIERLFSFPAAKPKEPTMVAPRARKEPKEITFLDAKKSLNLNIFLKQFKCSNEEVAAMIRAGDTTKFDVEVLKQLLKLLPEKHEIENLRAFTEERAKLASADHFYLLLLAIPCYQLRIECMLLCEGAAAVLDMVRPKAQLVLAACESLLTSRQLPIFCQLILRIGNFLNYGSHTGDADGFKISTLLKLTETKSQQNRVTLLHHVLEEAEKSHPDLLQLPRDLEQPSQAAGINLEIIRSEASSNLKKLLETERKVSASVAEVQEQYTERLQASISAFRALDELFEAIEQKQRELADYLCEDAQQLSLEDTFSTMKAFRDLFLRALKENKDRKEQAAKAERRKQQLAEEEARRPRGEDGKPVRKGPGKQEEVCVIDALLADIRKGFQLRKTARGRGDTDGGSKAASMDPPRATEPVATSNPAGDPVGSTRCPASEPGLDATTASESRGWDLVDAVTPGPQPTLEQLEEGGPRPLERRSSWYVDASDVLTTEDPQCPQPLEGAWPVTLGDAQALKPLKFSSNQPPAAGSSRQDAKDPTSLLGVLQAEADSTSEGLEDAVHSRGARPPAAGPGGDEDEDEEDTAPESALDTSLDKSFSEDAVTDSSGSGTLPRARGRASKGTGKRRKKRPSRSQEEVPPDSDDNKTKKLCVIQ
UniProt P20839, whole entry, looked up: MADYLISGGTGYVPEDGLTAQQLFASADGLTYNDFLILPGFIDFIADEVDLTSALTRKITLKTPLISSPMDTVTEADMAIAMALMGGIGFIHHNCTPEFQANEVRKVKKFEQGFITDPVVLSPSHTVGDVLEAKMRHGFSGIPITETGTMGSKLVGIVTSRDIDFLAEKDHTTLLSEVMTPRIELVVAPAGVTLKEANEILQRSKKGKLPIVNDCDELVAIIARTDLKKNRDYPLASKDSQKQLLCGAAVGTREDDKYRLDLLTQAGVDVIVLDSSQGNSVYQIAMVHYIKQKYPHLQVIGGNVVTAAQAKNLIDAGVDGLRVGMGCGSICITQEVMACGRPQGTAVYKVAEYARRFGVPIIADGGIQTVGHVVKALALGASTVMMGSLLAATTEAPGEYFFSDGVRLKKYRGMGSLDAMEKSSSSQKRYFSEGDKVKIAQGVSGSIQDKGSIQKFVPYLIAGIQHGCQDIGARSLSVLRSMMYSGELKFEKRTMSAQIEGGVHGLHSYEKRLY
UniProt Q659A1: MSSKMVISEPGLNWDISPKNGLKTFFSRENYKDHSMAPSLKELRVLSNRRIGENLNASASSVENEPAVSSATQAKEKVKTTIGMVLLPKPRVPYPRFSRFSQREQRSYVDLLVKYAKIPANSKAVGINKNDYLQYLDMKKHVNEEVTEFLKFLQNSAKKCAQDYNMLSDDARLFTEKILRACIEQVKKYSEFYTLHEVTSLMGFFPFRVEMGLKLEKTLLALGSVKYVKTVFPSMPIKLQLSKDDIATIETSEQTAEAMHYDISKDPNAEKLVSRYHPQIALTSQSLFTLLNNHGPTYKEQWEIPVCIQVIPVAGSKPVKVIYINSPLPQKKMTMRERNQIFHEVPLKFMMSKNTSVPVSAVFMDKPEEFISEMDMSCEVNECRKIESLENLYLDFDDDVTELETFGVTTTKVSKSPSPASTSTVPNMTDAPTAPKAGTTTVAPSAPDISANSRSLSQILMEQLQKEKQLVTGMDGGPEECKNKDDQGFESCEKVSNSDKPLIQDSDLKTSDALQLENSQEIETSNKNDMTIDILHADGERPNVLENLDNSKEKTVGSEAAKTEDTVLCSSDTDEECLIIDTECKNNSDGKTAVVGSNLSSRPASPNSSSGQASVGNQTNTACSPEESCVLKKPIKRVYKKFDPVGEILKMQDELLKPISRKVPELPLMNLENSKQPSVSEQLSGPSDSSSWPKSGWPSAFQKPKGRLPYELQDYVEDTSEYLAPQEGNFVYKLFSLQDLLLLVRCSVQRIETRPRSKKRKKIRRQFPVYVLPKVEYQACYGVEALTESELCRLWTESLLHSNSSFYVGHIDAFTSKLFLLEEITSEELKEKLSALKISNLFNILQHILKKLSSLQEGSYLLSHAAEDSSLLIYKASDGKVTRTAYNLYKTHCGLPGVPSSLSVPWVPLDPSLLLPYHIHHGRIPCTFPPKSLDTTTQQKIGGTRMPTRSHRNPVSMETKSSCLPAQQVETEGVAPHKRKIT
UniProt Q9UMF0: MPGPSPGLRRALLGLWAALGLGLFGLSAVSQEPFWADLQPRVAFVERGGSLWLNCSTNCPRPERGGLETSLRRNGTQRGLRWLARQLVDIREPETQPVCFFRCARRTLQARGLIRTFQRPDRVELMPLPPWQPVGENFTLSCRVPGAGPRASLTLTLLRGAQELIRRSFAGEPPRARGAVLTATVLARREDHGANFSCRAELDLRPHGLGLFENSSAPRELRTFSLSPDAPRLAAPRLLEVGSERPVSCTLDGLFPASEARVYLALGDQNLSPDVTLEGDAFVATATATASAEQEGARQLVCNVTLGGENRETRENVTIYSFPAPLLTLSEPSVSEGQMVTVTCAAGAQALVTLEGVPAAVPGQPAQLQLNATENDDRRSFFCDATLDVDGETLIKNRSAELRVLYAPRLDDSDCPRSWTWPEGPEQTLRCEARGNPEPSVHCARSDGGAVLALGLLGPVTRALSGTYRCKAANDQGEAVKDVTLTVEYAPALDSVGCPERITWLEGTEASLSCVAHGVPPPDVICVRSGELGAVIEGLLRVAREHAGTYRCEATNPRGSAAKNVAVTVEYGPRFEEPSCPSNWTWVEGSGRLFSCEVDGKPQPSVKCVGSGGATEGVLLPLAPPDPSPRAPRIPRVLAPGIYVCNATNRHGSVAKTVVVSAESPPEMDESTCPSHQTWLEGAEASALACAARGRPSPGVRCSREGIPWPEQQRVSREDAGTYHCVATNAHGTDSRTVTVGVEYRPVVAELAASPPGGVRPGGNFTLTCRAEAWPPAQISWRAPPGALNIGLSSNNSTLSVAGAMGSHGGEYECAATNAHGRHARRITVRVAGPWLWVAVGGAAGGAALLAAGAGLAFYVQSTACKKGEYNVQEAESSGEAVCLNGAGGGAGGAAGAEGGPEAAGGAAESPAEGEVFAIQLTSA
UniProt O14920: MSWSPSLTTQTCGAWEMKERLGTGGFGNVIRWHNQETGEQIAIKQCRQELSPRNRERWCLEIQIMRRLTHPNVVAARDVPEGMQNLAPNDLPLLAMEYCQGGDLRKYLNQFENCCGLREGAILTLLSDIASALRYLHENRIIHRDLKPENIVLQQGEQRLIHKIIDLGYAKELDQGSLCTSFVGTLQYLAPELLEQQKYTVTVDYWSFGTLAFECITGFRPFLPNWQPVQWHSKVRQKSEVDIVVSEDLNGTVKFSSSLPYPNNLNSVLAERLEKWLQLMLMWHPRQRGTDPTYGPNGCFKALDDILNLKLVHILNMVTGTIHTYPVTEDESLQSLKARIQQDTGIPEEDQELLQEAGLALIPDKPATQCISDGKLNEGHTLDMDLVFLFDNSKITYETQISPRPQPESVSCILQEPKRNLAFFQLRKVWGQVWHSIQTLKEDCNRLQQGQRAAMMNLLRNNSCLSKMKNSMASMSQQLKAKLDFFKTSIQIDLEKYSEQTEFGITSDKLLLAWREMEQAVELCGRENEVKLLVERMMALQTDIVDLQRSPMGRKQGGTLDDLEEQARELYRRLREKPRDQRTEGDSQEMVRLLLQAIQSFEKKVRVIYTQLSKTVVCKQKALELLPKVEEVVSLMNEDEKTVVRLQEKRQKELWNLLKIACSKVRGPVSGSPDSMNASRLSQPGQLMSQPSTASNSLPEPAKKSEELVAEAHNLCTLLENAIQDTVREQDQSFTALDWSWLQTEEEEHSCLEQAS
UniProt P15260: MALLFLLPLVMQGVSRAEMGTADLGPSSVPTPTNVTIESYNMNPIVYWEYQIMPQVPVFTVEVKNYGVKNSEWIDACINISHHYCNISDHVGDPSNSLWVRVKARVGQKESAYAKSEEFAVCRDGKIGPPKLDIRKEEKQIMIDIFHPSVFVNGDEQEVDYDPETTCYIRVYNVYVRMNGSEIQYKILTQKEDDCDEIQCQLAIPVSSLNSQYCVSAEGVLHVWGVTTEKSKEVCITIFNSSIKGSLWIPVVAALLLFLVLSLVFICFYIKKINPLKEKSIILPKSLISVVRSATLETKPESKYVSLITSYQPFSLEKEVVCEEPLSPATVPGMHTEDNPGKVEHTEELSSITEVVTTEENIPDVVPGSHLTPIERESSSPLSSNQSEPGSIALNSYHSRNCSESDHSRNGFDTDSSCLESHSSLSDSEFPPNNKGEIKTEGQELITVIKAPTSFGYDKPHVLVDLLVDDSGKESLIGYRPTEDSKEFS

Experiments:
Test in all cases: log2 fold change, soluble protein after heating vs DMSO (PISA); higher = thermal stabilisation; K562 lysate, 10 uM; active = over 0.2 and 3.5 SD of the protein, either way, in both replicates (recomputed)
[1] = compound: C1=CC=C(C=C1)[C@H](COC2=CC3=C(C=C2)NC(=O)N3)NC(=O)C4=CC=CN(C4=O)CC5=CC(=C(C=C5)F)F
Procedure, shortened: (§1)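 Soluble protein was defined as the supernatant remaining after 21,000xg for 90 min, following pooling of heated aliquots and adjustment to 0.5% NP-40 at 4°C. Before that, crude K562 extract at 1 mg/mL protein in PBS pH 7.4 with 1 mM MgCl2 was treated with 10 μM compound for 30 min and heated for 3 min across 48°C-58°C. Quantification used TMTpro 16plex LC-MS/MS with channel sums equalised, and values are log-two fold changes in thermal stability relative to solvent controls from duplicates.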

[2] = compound: CC1=C(SC2=C1C(=N[C@H](C3=NN=C(N32)C)CC(=O)N)C4=CC=C(C=C4)Cl)C
Procedure, shortened: as §1

[3] = compound: CC1=C2C(=CC=C1)N=C(N(C2=O)C3=CC=CC=C3C)CN4C=NC5=C(N=CN=C54)N
Procedure, shortened: as §1

[4] = compound: Cc1sc2c(c1C)C(c1ccc(Cl)cc1)=N[C@@H](CC(=O)OC(C)(C)C)c1nnc(C)n1-2
Procedure, shortened: as §1

[5] = compound: c1ccc([C@@H]2C[C@H]2NC2CCNCC2)cc1
Procedure, shortened: as §1

Measured: log2 fold change

HYKK (UniProt A2RU49)
inactive: [1] 0.092 | [2] -0.04

INPP5A (UniProt Q14642)
inactive: [1] -0.006 | [2] 0.043 | [3] 0 | [4] -0.228 | [5] -0.031

IFT43 (UniProt Q96FT9)
inactive: [1] -0.147 | [2] 0.065 | [3] 0.248 | [4] -0.051

Quoted from the results shown (2 entries):
INPP5A (UniProt Q14642)
inactive: [1] -0.006 | [2] 0.043 | [3] 0 | [4] -0.228 | [5] -0.031

IFT43 (UniProt Q96FT9)
inactive: [1] -0.147 | [2] 0.065 | [3] 0.248 | [4] -0.051

Continuation.

INTS12 (UniProt Q96CB8)
inactive: [1] 0.025 | [2] 0.044 | [3] 0.029 | [4] -0.172 | [5] 0.032

IARS (UniProt P41252)
inactive: [1] -0.027 | [2] 0.026 | [3] 0.025 | [4] 0.066 | [5] 0.047

INF2 (UniProt Q27J81)
inactive: [1] 0.016 | [2] 0.017 | [3] 0.015 | [4] -0.014 | [5] -0.06

IKZF4 (UniProt Q9H2S9)
inactive: [1] 0.162 | [2] 0.327

IGHG1 (UniProt P01857)
inactive: [1] 0.433 | [2] -0.179 | [3] 0.103 | [4] 0.055 | [5] -0.209

HSPH1 (UniProt Q92598)
inactive: [1] 0.019 | [2] -0.028 | [3] 0.006 | [4] 0.008 | [5] -0.023

ICMT (UniProt O60725)
inactive: [1] 0.008 | [2] 0.034 | [3] 0.036 | [4] -0.166

ILK (UniProt Q13418)
inactive: [1] -0.009 | [2] -0.019 | [3] 0.004 | [4] 0.027 | [5] -0.002

IDS (UniProt P22304)
inactive: [1] -0.123 | [2] 0.139

IER3IP1 (UniProt Q9Y5U9)
inactive: [1] -0.038 | [2] -0.126 | [3] -0.009 | [4] -0.179 | [5] 0.039

IMPAD1 (UniProt Q9NX62)
inactive: [1] 0.056 | [2] 0.034 | [3] 0.044 | [4] -0.026 | [5] -0.008

IMMT (UniProt Q16891)
inactive: [1] -0.089 | [2] 0.016 | [3] 0.017 | [4] 0.022 | [5] 0.038

INPP5K (UniProt Q9BT40)
inactive: [1] 0.034 | [2] -0.136 | [3] 0.14 | [4] 0.188 | [5] -0.092

IGHA1 (UniProt P01876)
inactive: [1] -0.315 | [2] 0.337 | [3] 0.349 | [4] -0.259 | [5] -0.215

HSPBP1 (UniProt Q9NZL4)
inactive: [1] 0.026 | [2] 0.013 | [3] 0.034 | [4] 0.004 | [5] -0.017

IMPDH1 isoform 6 (UniProt P20839)
inactive: [1] -0.008 | [2] 0.025 | [3] -0.009 | [4] 0.053 | [5] -0.051

IMPDH2 (UniProt H0Y4R1)
inactive: [1] -0.048 | [2] 0 | [3] -0.077 | [4] -0.018 | [5] -0.203

HSPA9 (UniProt P38646)
inactive: [1] 0.007 | [2] -0.016 | [3] 0.023 | [4] 0 | [5] -0.009

ICE2 (UniProt Q659A1)
inactive: [1] 0.003 | [2] 0.02 | [3] -0.017 | [4] -0.004 | [5] -0.012

ING4 (UniProt Q9UNL4)
inactive: [1] -0.25 | [2] -0.307

ILF2 (UniProt Q12905)
inactive: [1] 0.023 | [2] 0.029 | [3] -0.008 | [4] 0.002 | [5] -0.012

ILRUN (UniProt Q9H6K1)
inactive: [1] 0.078 | [2] -0.021 | [3] 0.03 | [4] 0.009 | [5] 0.028

ICAM5 (UniProt Q9UMF0)
inactive: [1] 0.082 | [2] 0.045 | [3] -0.079 | [4] 0.078 | [5] -0.068

IKBIP isoform 4 (UniProt Q70UQ0)
inactive: [1] 0.018 | [2] -0.012 | [3] 0.024 | [4] -0.022 | [5] -0.03

ICOSLG isoform 2 (UniProt O75144)
inactive: [1] -0.146 | [2] -0.018

HSPD1 (UniProt P10809)
inactive: [1] -0.007 | [2] 0.019 | [3] -0.005 | [4] 0.002 | [5] -0.006

HTR1F (UniProt P30939)
inactive: [1] -0.007 | [2] -0.045 | [3] -0.071

IDH2 (UniProt P48735)
inactive: [1] -0.023 | [2] 0.009 | [3] 0.012 | [4] 0.053 | [5] 0.073

ICA1 (UniProt Q05084)
inactive: [1] -0.009 | [2] 0.03 | [3] -0.021 | [4] -0.011 | [5] -0.006

IKBKB (UniProt O14920)
inactive: [1] -0.006 | [2] -0.025 | [3] 0.01 | [4] 0.006 | [5] 0.068

IDH3B (UniProt O43837)
inactive: [1] 0.002 | [2] -0.004 | [3] -0.034 | [4] 0.037 | [5] -0.062

HSPA6 (UniProt P17066)
inactive: [1] 0.012 | [2] 0.035 | [3] -0.066 | [4] -0.233 | [5] -0.066

HSPB1 (UniProt P04792)
inactive: [1] -0.091 | [2] 0.002 | [3] 0.002 | [4] -0.017 | [5] 0.028

HUS1 (UniProt O60921)
inactive: [1] 0.015 | [2] 0.031 | [3] 0.022 | [4] -0.035 | [5] -0.003

IFI30 (UniProt P13284)
inactive: [1] -0.047 | [2] -0.053 | [3] 0.041 | [4] -0.092 | [5] 0.019

IFRD2 isoform 2 (UniProt Q12894)
inactive: [1] 0.022 | [2] 0.144 | [3] 0.029 | [4] -0.105 | [5] -0.108

IFNGR1 (UniProt P15260)
inactive: [1] 0.094 | [2] 0.083 | [3] 0.142 | [4] -0.299 | [5] -0.479

HSPA8 (UniProt E9PK54)
inactive: [1] 0.065 | [2] -0.031 | [3] -0.031 | [4] -0.046 | [5] -0.125

IL18R1 (UniProt Q13478)
active: [1] -0.612
inactive: [2] -0.103 | [3] 0.119 | [4] -0.094 | [5] 0.052

HYPK (UniProt Q9NX55)
inactive: [1] -0.029 | [2] -0.091 | [3] -0.056 | [4] -0.025 | [5] 0.033

ICAM1 (UniProt P05362)
inactive: [1] -0.031 | [2] 0.004 | [3] -0.011 | [4] -0.037 | [5] -0.028

IDH3G (UniProt P51553)
inactive: [1] 0.018 | [2] 0.031 | [3] -0.031 | [4] 0.062 | [5] 0.008

IGF2BP3 (UniProt O00425)
inactive: [1] -0.02 | [2] 0.005 | [3] 0.009 | [4] 0.035 | [5] -0.002

HTATSF1 (UniProt O43719)
inactive: [1] 0.04 | [2] -0.028 | [3] 0.001 | [4] 0 | [5] -0.023

IGF2R (UniProt P11717)
inactive: [1] 0.029 | [2] -0.006 | [3] 0.018 | [4] -0.008 | [5] -0.053

IKBKG isoform 2 (UniProt Q9Y6K9)
inactive: [1] 0.026 | [2] -0.031 | [3] 0.013 | [4] -0.004 | [5] -0.062

ING3 (UniProt Q9NXR8)
inactive: [1] 0.056 | [2] 0.043 | [3] 0.017 | [4] 0.013 | [5] 0.082

IK (UniProt Q13123)
inactive: [1] 0.019 | [2] -0.07 | [3] -0.019 | [4] -0.006 | [5] -0.03

INPP5B (UniProt P32019)
inactive: [1] 0.005 | [2] -0.008 | [3] 0.038 | [4] -0.032 | [5] -0.015

HTRA2 (UniProt O43464)
inactive: [1] 0.065 | [2] 0.024 | [3] 0.03 | [4] -0.018 | [5] -0.023

IGBP1 (UniProt P78318)
inactive: [1] 0.023 | [2] -0.017 | [3] -0.008 | [4] 0.045 | [5] -0.038

IDI1 (UniProt Q13907)
inactive: [1] 0.018 | [2] -0.062 | [3] -0.015 | [4] 0.007 | [5] -0.081

3 entries drawn at random from those above, as already listed:
ING3 (UniProt Q9NXR8)
inactive: [1] 0.056 | [2] 0.043 | [3] 0.017 | [4] 0.013 | [5] 0.082

IDI1 (UniProt Q13907)
inactive: [1] 0.018 | [2] -0.062 | [3] -0.015 | [4] 0.007 | [5] -0.081

IK (UniProt Q13123)
inactive: [1] 0.019 | [2] -0.07 | [3] -0.019 | [4] -0.006 | [5] -0.03

Additional records

IFITM3 (UniProt Q01628)
inactive: [1] -0.011 | [2] -0.078 | [3] -0.118 | [4] -0.088 | [5] 0.026
